Patent US20160039742A1, “EXTRACTION OF TRAMADOL FROM NAUCLEA LATIFOLIA SMITH” ([…] FOURIER - GRENOBLE 1, priority 2013, published 2016)
Marks after values point to notes of the source that are not given here.

How the values were obtained:
Format in all cases: in vivo
[1] = system: acetic acid-induced abdominal constrictions in mice; experiment: Acetic acid induced abdominal constriction (writhing) test; conditions: for Acetic acid-induced writhing inhibition (%): 1 h before acetic acid
Procedure: (§1) Experiments in mice were performed on C57BL/6 male mice (Janvier, Le-Genest-St-Isle, France) weighting 26-35 g, housed in individual cages with food and water ad libitum and kept in a 12 hours/12 hours light-dark cycle. All animal experimentations were carried out in accordance with the rules of the European Committee Council Directive of Nov. 24, 1986 (86/609/EEC) and all procedures were approved by the local department of the veterinarian services for the use and care of animals (agreement #380612). All efforts were made to minimize animal suffering and reduce the number of animals used in each series of experiments.
One hour after oral administration of these substances, each animal was injected i.p. with 0.6% acetic acid in a volume of 10 ml/kg body weight. After acetic acid injection, the number of stretching or writhing responses per animal was recorded during 30 min after a latency period of 5 min. Inhibition was expressed in percentage.
Data were analyzed by two-way Anova followed by Tukey's (HSD) multi-comparison test.

[2] = system: tail flick response in mice after immersion in 55° C. water bath; experiment: Tail-flick test
Procedure: as §1
The tail-flick test was carried out according to the method described by D'Amour and Smith. This involved immersing extreme 3 cm of the mice's tail in water bath containing water at a temperature of 55±0.5° C. […] The reaction time was recorded with a stopwatch. […] The reaction time of mice was taken at intervals of 15, 30 and 60 min after a latency period of 1 hour following the administration of the decoction and drugs.
The protection percentage was calculated as the ratio (reaction time following tramadol administration−initial reaction time): initial reaction time.

[3] = system: glutamate-induced nociception in mice; experiment: Glutamate-induced nociception; conditions: p.o., 1 hour before test
Procedure: as §1
Animals were treated with the purified tramadol isolated from Nauclea Latifolia (8, 16 or 32 mg/kg, p.o.), dipyrone (60 mg/kg, p.o.) or 0.9% NaCl (p.o.) 1 hour before test. A volume of 20 μl of glutamate (30 μmol/paw) was injected intraplantarly in the ventral surface of the right hind paw. Animals were observed individually for 15 min following glutamate injection. The amount of time they spent licking the injected paw was recorded with a chronometer and was considered as indicative of nociception. Data were analyzed by two-way Anova followed by Tukey's (HSD) multi-comparison test.

COc1cccc([C@]2(O)CCCC[C@H]2CN(C)C)c1 (racemic) [F27 of N. latifolia, (±)-cis-2-dimethylaminomethyl-1-(3-methoxyphenyl)cyclohexanol]
Acetic acid-induced writhing inhibition (%) ([1]; 8 mg/kg p.o.): 19.3%
Acetic acid-induced writhing inhibition (%) ([1]; 16 mg/kg p.o.): 43.7%
Acetic acid-induced writhing inhibition (%) ([1]; 32 mg/kg p.o.): 56.8%
dose dependence of inhibition of acetic acid-induced abdominal constrictions ([1]; 8, 16 or 32 mg/kg, p.o.): dose-dependent
maximal inhibition of acetic acid-induced abdominal constrictions ([1]; oral administration): 56.8%
Protection agains thermal nociception (%) ([2]; 32 mg/kg p.o., 60 min): 63.5*** %
maximum inhibitory effect in tail immersion ([2]; between 30 and 60 post-dosing, dose of 800 mg/kg as printed): 63.5%
maximal inhibition of glutamate-induced nociception [3]: 66.55%
